# Test results from the supplement of paper PMC8728848.
# The list shows a part of the results.
# B1: Flo10 (Saccharomyces cerevisiae), P36170 (protein)
# chain: MPVAARYIFLTGLFLLSVANVALGTTEACLPAGEKKNGMTINFYQYSLKDSSTYSNPSYMAYGYADAEKLGSVSGQTKLSIDYSIPCNGASDTCACSDDDATEYSASQVVPVKRGVKLCSDNTTLSSKTEKRENDDCDQGAAYWSSDLFGFYTTPTNVTVEMTGYFLPPKTGTYTFGFATVDDSAILSVGGNVAFECCKQEQPPITSTDFTINGIKPWNADAPTDIKGSTYMYAGYYYPIKIVYSNAVSWGTLPVSVVLPDGTEVNDDFEGYVFSFDDNATQAHCSVPNPAEHARTCVSSATSSWSSSEVCTECTETESTSYVTPYVTSSSWSSSEVCTECTETESTSTSTPYVTSSSSSSSEVCTECTETESTSYVTPYVSSSTAAANYTSSFSSSSEVCTECTETESTSTSTPYVTSSSWSSSEVCTECTETESTSYVTPYVSSSTAAANYTSSFSSSSEVCTECTETESTSTSTPYVTSSSSSSSEVCTECTETESTSYVTPYVSSSTAAANYTSSFSSSSEVCTECTETESTSTSTPYVTSSSWSSSEVCTECTETESTSYVTPYVSSSTAAANYTSSFSSSSEVCTECTETESTSTSTPYATSSTGTATSFTASTSNTMTSLVQTDTTVSFSLSSTVSEHTNAPTSSVESNASTFISSNKGSVKSYVTSSIHSITPMYPSNQTVTSSSVVSTPITSESSESSASVTILPSTITSEFKPSTMKTKVVSISSSPTNLITSYDTTSKDSTVGSSTSSVSLISSISLPSSYSASSEQIFHSSIVSSNGQALTSFSSTKVSSSESSESHRTSPTTSSESGIKSSGVEIESTSTSSFSFHETSTASTSVQISSQFVTPSSPISTVAPRSTGLNSQTESTNSSKETMSSENSASVMPSSSATSPKTGKVTSDETSSGFSRDRTTVYRMTSETPSTNEQTTLITVSSCESNSCSNTVSSAVVSTATTTINGITTEYTTWCPLSATELTTVSKLESEEKTTLITVTSCESGVCSETASPAIVSTATATVNDVVTVYSTWSPQATNKLAVSSDIENSASKASFVSEAAETKSISRNNNFVPTSGTTSIETHTTTTSNASENSDNVSASEAVSSKSVTNPVLISVSQQPRGTPASSMIGSSTASLEMSSYLGIANHLLTNSGISIFIASLLLAIV
# How the values were obtained:
# Test in all cases: glycan array binding signal (z-score within array); higher = stronger binding
# Conditions in all cases: glycan notation: IUPAC condensed, linker removed
# [1] = biological target: GlcNAc(a1-4)Gal(b1-4)GalNAc
# Summary of the method: (§1)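 The Consortium for Functional Glycomics database supplied 3228 glycan arrays, of which those lacking an available protein sequence were dropped. The binding signal, a within-array Z-score, was averaged across arrays of the same protein sequence and across linkers. Negative scores can be read as non-binding.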
# [2] = biological target: GlcNAc(a1-4)Gal(b1-4)GlcNAc
# Summary of the method: as §1
# [3] = biological target: GlcNAc(a1-4)Gal(b1-4)GlcNAc(b1-3)Gal(b1-4)Glc
# Summary of the method: as §1
# [4] = biological target: GlcNAc(a1-4)Gal(b1-4)GlcNAc(b1-3)Gal(b1-4)GlcNAc
# Summary of the method: as §1
# [5] = biological target: GlcNAc(a1-4)Gal(b1-4)GlcNAc(b1-3)Gal(b1-4)GlcNAc(b1-3)Gal(b1-4)GlcNAc
# Summary of the method: as §1
# [6] = biological target: GlcNAc(a1-4)Gal(b1-4)GlcNAc(b1-3)Gal(b1-4)[Fuc(a1-3)]GlcNAc(b1-3)Gal(b1-4)[Fuc(a1-3)]GlcNAc
# Summary of the method: as §1
# [7] = biological target: GlcNAc(a1-6)Gal(b1-4)GlcNAc
# Summary of the method: as §1
# [8] = biological target: GlcNAc(b1-2)Gal(b1-3)GalNAc
# Summary of the method: as §1
# [9] = biological target: GlcNAc(b1-2)Man(a1-3)[GlcNAc(b1-2)Man(a1-6)]Man(b1-4)GlcNAc(b1-4)GlcNAc
# Summary of the method: as §1
# [10] = biological target: GlcNAc(b1-2)Man(a1-3)[GlcNAc(b1-2)Man(a1-6)]Man(b1-4)GlcNAc(b1-4)[Fuc(a1-6)]GlcNAc
# Summary of the method: as §1
# [11] = biological target: GlcNAc(b1-2)[GlcNAc(b1-4)]Man(a1-3)[GlcNAc(b1-2)Man(a1-6)]Man(b1-4)GlcNAc(b1-4)GlcNAc
# Summary of the method: as §1
# GlcNAc(b1-3)Gal = biological target: GlcNAc(b1-3)Gal
# Summary of the method: as §1
# [12] = biological target: GlcNAc(b1-3)Gal(b1-3)GalNAc
# Summary of the method: as §1
# GlcNAc(b1-3)Gal(b1-4)Glc = biological target: GlcNAc(b1-3)Gal(b1-4)Glc
# Summary of the method: as §1
# [13] = biological target: GlcNAc(b1-3)Gal(b1-4)GlcNAc
# Summary of the method: as §1
# [14] = biological target: GlcNAc(b1-3)Gal(b1-4)GlcNAc(b1-3)Gal(b1-4)GlcNAc
# Summary of the method: as §1
# GlcNAc(b1-3)GalNAc = biological target: GlcNAc(b1-3)GalNAc
# Summary of the method: as §1
# GlcNAc(b1-3)Man = biological target: GlcNAc(b1-3)Man
# Summary of the method: as §1
# [15] = biological target: GlcNAc(b1-3)[GlcNAc(b1-4)][GlcNAc(b1-6)]GlcNAc
# Summary of the method: as §1
# [16] = biological target: GlcNAc(b1-3)[GlcNAc(b1-6)]Gal(b1-4)GlcNAc
# Summary of the method: as §1
# [17] = biological target: GlcNAc(b1-3)[GlcNAc(b1-6)]GalNAc
# Summary of the method: as §1
# [18] = biological target: GlcNAc(b1-4)Gal(b1-4)GlcNAc
# Summary of the method: as §1
# GlcNAc(b1-4)GlcNAc = biological target: GlcNAc(b1-4)GlcNAc
# Summary of the method: as §1
# [19] = biological target: GlcNAc(b1-4)GlcNAc(b1-4)GlcNAc
# Summary of the method: as §1
# [20] = biological target: GlcNAc(b1-4)GlcNAc(b1-4)GlcNAc(b1-4)GlcNAc(b1-4)GlcNAc
# Summary of the method: as §1
# [21] = biological target: GlcNAc(b1-4)GlcNAc(b1-4)GlcNAc(b1-4)GlcNAc(b1-4)GlcNAc(b1-4)GlcNAc
# Summary of the method: as §1
# [22] = biological target: GlcNAc(b1-4)[GlcNAc(b1-6)]GalNAc
# Summary of the method: as §1
# [23] = biological target: GlcNAc(b1-6)Gal(b1-4)GlcNAc
# Summary of the method: as §1
# GlcNAc(b1-6)GalNAc = biological target: GlcNAc(b1-6)GalNAc
# Summary of the method: as §1
# GlcNAc3Prop(b1-4)GlcNAc = biological target: GlcNAc3Prop(b1-4)GlcNAc
# Summary of the method: as §1
# [24] = biological target: GlcNAc6S(b1-3)Gal(b1-4)GlcNAc
# Summary of the method: as §1
# Kdn(a2-3)Gal(b1-3)GalNAc = biological target: Kdn(a2-3)Gal(b1-3)GalNAc
# Summary of the method: as §1
# Kdn(a2-3)Gal(b1-3)GlcNAc = biological target: Kdn(a2-3)Gal(b1-3)GlcNAc
# Summary of the method: as §1
# Kdn(a2-3)Gal(b1-4)Glc = biological target: Kdn(a2-3)Gal(b1-4)Glc
# Summary of the method: as §1
# Kdn(a2-3)Gal(b1-4)GlcNAc = biological target: Kdn(a2-3)Gal(b1-4)GlcNAc
# Summary of the method: as §1
# [25] = biological target: Kdn(a2-3)Gal(b1-4)[Fuc(a1-3)]GlcNAc
# Summary of the method: as §1
# Kdn(a2-6)Gal(b1-4)GlcNAc = biological target: Kdn(a2-6)Gal(b1-4)GlcNAc
# Summary of the method: as §1
# [26] = biological target: Man(a1-2)Man(a1-2)Man(a1-3)Man
# Summary of the method: as §1
# [27] = biological target: Man(a1-2)Man(a1-2)Man(a1-6)[Man(a1-3)]Man
# Summary of the method: as §1
# Man(a1-2)Man(a1-3)Man = biological target: Man(a1-2)Man(a1-3)Man
# Summary of the method: as §1
# [28] = biological target: Man(a1-2)Man(a1-3)[Man(a1-2)Man(a1-6)]Man
# Summary of the method: as §1
# [29] = biological target: Man(a1-2)Man(a1-3)[Man(a1-2)Man(a1-6)]Man(a1-6)[Man(a1-2)Man(a1-2)Man(a1-3)]Man
# Summary of the method: as §1
# [30] = biological target: Man(a1-2)Man(a1-3)[Man(a1-2)Man(a1-6)]Man(a1-6)[Man(a1-2)Man(a1-2)Man(a1-3)]Man(b1-4)GlcNAc(b1-4)GlcNAc
# Summary of the method: as §1
# [31] = biological target: Man(a1-2)Man(a1-3)[Man(a1-6)]Man(a1-6)[Man(a1-2)Man(a1-3)]Man(b1-4)GlcNAc(b1-4)GlcNAc
# Summary of the method: as §1
# [32] = biological target: Man(a1-2)Man(a1-6)[Man(a1-3)]Man(a1-6)[Man(a1-2)Man(a1-2)Man(a1-3)]Man
# Summary of the method: as §1
binder,measurement,setting,value
B1,glycan array binding signal (z-score),[1],0.33
same,glycan array binding signal (z-score),[2],0.909
same,glycan array binding signal (z-score),[3],-0.191
same,glycan array binding signal (z-score),[4],1.27
same,glycan array binding signal (z-score),[5],-0.649
same,glycan array binding signal (z-score),[6],-0.159
same,glycan array binding signal (z-score),[7],-0.682
same,glycan array binding signal (z-score),[8],-0.768
same,glycan array binding signal (z-score),[9],-0.394
same,glycan array binding signal (z-score),[10],-0.276
same,glycan array binding signal (z-score),[11],0.012
same,glycan array binding signal (z-score),GlcNAc(b1-3)Gal,-0.619
same,glycan array binding signal (z-score),[12],2.82
same,glycan array binding signal (z-score),GlcNAc(b1-3)Gal(b1-4)Glc,-0.205
same,glycan array binding signal (z-score),[13],-0.536
same,glycan array binding signal (z-score),[14],-0.29
same,glycan array binding signal (z-score),GlcNAc(b1-3)GalNAc,-0.711
same,glycan array binding signal (z-score),GlcNAc(b1-3)Man,1.02
same,glycan array binding signal (z-score),[15],0.63
same,glycan array binding signal (z-score),[16],-0.477
same,glycan array binding signal (z-score),[17],-0.39
same,glycan array binding signal (z-score),[18],-0.716
same,glycan array binding signal (z-score),GlcNAc(b1-4)GlcNAc,-0.12
same,glycan array binding signal (z-score),[19],-0.506
same,glycan array binding signal (z-score),[20],-0.892
same,glycan array binding signal (z-score),[21],-0.661
same,glycan array binding signal (z-score),[22],-0.642
same,glycan array binding signal (z-score),[23],-0.298
same,glycan array binding signal (z-score),GlcNAc(b1-6)GalNAc,-0.656
same,glycan array binding signal (z-score),GlcNAc3Prop(b1-4)GlcNAc,-0.731
same,glycan array binding signal (z-score),[24],-0.057
same,glycan array binding signal (z-score),Kdn(a2-3)Gal(b1-3)GalNAc,0.113
same,glycan array binding signal (z-score),Kdn(a2-3)Gal(b1-3)GlcNAc,-0.565
same,glycan array binding signal (z-score),Kdn(a2-3)Gal(b1-4)Glc,2.77
same,glycan array binding signal (z-score),Kdn(a2-3)Gal(b1-4)GlcNAc,-0.202
same,glycan array binding signal (z-score),[25],2.08
same,glycan array binding signal (z-score),Kdn(a2-6)Gal(b1-4)GlcNAc,0.854
same,glycan array binding signal (z-score),[26],-0.231
same,glycan array binding signal (z-score),[27],-0.531
same,glycan array binding signal (z-score),Man(a1-2)Man(a1-3)Man,-0.487
same,glycan array binding signal (z-score),[28],0.219
same,glycan array binding signal (z-score),[29],0.219
same,glycan array binding signal (z-score),[30],0.031
same,glycan array binding signal (z-score),[31],-0.671
same,glycan array binding signal (z-score),[32],-0.311

# A run of entries of the results above, for reference:
binder,measurement,setting,value
B1,glycan array binding signal (z-score),GlcNAc(b1-3)Gal,-0.619
same,glycan array binding signal (z-score),[12],2.82
same,glycan array binding signal (z-score),GlcNAc(b1-3)Gal(b1-4)Glc,-0.205
same,glycan array binding signal (z-score),[13],-0.536
same,glycan array binding signal (z-score),[14],-0.29
same,glycan array binding signal (z-score),GlcNAc(b1-3)GalNAc,-0.711
same,glycan array binding signal (z-score),GlcNAc(b1-3)Man,1.02
same,glycan array binding signal (z-score),[15],0.63
same,glycan array binding signal (z-score),[16],-0.477
same,glycan array binding signal (z-score),[17],-0.39
same,glycan array binding signal (z-score),[18],-0.716
